These are yes or no findings as the source states them, for the method shown. Binding seen in cells or lysates may run through a third protein. Some results given as binding are weak or reduced against the parent protein; the word gives no strength.
B1: BLOC1S2 (protein, UniProt Q6QNY1 1-142)
chain: MAAAAEGVLATRSDEPARDDAAVETAEEAKEPAEADITELCRDMFSKMATYLTGELTATSEDYKLLENMNKLTSLKYLEMKDIAINISRNLKDLNQKYAGLQPYLDQINVIEEQVAALEQAAYKLDAYSKKLEAKYKKLEKR
B2: Serpin H1 (protein, UniProt P50454 19-418)
chain: AEVKKPAAAAAPGTAEKLSPKAATLAERSAGLAFSLYQAMAKDQAVENILVSPVVVASSLGLVSLGGKATTASQAKAVLSAEQLRDEEVHAGLGELLRSLSNSTARNVTWKLGSRLYGPSSVSFADDFVRSSKQHYNCEHSKINFRDKRSALQSINEWAAQTTDGKLPEVTKDVERTDGALLVNAMFFKPHWDEKFHHKMVDNRGFMVTRSYTVGVMMMHRTGLYNYYDDEKEKLQIVEMPLAHKLSSLIILMPHHVEPLERLEKLLTKEQLKIWMGKMQKKAVAISLPKGVVEVTHDLQKHLAGLGLTEAIDKNKADLSRMSGKKDLYLASVFHATAFELDTDGNPFDQDIYGREELRSPKLFYADHPFIFLVRDTQSGSLLFIGRLVRPKGDKMRDEL
B3: GRXCR2 (protein, UniProt A6NFK2 1-248)
chain: MEDPEKKLNQKSDGKPRKVRFKISSSYSGRVLKQVFEDGQELESPKEEYPHSFLQESLETMDGVYGSGEVPRPQMCSPKLTAQRISVFREGNAYTLAGGQPRFNDYKANDHKPLPIIDFGKIIIYTNNLKIIRTPMDKRDFVRKILQKEEEAEEESLMNKEESYGGRDQHDRPLVEAESTLPQNRYTQEGDIPEDSCFHCRGSGSATCSLCHGSKFSMLANRFKESYRALRCPACNENGLQPCQICNQ
B4: BBS4 (protein, UniProt Q96RK4 1-519)
chain: MAEERVATRTQFPVSTESQKPRQKKAPEFPILEKQNWLIHLHYIRKDYEACKAVIKEQLQETQGLCEYAIYVQALIFRLEGNIQESLELFQTCAVLSPQSADNLKQVARSLFLLGKHKAAIEVYNEAAKLNQKDWEISHNLGVCYIYLKQFNKAQDQLHNALNLNRHDLTYIMLGKIHLLEGDLDKAIEVYKKAVEFSPENTELLTTLGLLYLQLGIYQKAFEHLGNALTYDPTNYKAILAAGSMMQTHGDFDVALTKYRVVACAVPESPPLWNNIGMCFFGKKKYVAAISCLKRANYLAPFDWKILYNLGLVHLTMQQYASAFHFLSAAINFQPKMGELYMLLAVALTNLEDIENAKRAYAEAVHLDKCNPLVNLNYAVLLYNQGEKKNALAQYQEMEKKVSLLKDNSSLEFDSEMVEMAQKLGAALQVGEALVWTKPVKDPKSKHQTTSTSKPASFQQPLGSNQALGQAMSSAAAYRTLPSGAGGTSQFTKPPSLPLEPEPAVESSPTETSEQIREK

The chains behind the UniProt entries cited, without tags or fusion partners. Residues count along the entry.
UniProt P11021, residues 19-654: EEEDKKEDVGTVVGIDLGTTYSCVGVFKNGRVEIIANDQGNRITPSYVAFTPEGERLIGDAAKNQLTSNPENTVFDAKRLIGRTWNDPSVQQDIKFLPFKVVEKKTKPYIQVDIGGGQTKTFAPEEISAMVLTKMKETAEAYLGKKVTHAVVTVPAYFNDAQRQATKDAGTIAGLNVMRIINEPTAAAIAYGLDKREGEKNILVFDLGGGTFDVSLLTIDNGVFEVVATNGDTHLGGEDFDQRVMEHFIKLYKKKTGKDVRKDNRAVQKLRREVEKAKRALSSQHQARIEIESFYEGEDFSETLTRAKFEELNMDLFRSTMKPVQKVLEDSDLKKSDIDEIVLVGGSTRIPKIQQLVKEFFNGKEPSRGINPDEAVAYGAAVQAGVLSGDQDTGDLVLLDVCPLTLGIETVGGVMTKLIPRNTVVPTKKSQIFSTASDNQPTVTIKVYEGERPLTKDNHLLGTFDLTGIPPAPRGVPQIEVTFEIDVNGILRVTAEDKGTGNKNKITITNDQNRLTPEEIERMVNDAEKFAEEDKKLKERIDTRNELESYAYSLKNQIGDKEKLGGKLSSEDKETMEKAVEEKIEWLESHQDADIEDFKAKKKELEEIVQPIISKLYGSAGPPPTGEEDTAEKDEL
UniProt Q99873: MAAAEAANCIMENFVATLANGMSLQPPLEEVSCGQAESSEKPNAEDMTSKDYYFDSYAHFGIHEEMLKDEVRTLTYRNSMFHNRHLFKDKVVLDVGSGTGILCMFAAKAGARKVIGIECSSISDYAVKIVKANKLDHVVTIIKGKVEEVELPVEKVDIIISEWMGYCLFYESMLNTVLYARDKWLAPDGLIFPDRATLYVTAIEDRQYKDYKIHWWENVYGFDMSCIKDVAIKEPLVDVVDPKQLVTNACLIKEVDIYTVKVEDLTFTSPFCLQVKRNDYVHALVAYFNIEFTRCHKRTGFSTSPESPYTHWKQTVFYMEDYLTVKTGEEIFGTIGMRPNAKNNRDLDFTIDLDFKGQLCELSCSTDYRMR
UniProt P50990: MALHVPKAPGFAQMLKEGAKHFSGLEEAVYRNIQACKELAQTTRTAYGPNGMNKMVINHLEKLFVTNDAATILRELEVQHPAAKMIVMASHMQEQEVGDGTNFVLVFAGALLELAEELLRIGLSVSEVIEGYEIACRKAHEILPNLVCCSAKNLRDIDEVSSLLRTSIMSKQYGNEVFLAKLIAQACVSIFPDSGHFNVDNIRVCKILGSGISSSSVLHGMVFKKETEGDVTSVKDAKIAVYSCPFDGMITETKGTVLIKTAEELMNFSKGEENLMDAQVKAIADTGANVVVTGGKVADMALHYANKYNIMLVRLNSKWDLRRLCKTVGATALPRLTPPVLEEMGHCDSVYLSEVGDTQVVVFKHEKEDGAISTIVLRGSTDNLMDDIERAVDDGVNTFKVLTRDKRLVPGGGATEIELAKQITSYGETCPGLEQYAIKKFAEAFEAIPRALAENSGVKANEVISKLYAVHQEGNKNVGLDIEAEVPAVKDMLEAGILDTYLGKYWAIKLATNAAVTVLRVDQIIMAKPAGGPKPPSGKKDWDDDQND
UniProt P28799, residues 18-593: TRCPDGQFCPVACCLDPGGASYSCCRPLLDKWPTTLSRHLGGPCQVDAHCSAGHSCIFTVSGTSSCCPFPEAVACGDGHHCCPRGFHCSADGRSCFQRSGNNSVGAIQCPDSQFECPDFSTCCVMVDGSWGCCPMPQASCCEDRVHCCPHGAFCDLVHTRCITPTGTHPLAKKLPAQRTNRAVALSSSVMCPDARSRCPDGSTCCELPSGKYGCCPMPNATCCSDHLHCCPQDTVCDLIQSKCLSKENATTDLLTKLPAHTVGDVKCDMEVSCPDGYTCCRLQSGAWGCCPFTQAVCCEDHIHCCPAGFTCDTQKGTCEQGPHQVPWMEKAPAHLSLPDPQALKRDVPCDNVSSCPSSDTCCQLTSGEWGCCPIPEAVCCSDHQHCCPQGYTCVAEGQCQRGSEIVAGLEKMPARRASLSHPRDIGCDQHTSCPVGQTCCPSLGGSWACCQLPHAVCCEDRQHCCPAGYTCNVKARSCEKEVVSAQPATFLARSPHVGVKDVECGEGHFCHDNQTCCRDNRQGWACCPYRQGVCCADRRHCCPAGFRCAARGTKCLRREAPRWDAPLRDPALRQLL

Biological target: Glucose regulated protein 78 (GRP78) (human (endogenous in OECM1, FaDu, BM2, NPC076)) (UniProt P11021)
Assay: co-IP; plasma membrane (PM) proteins of OECM1, FaDu, BM2 or NPC076 cells incubated with anti-GRP78 antibody or isotype control immunoglobulin at 4 °C overnight, 2% CHAPS, protein A/G agarose beads, washed twice with PBS; western blot of the candidates

| Molecule | binding |
| --- | --- |
| PRMT1 (from UniProt Q99873 1-371) | binds |
| TCP-1 theta (from UniProt P50990 1-548) | binds |
| Progranulin (from UniProt P28799 18-593) | binds |
| B1 | binds |
| B2 | binds |
| B3 | binds |
| B4 | binds |
